The list shows a part of the results. Further columns of the screen follow, without active or inactive calls. Compounds called inactive in the main read-out are mostly missing here. Potencies come from curve fits of mixed quality, noted in brackets.

The nature of the test: IkB Signaling. Conditions: ABC-DLBCL IkBa-CBG/CBR dual luciferase ratio (green luciferase fused to IkBa over red control in OCI-Ly3 lymphoma cells), 4 h. Summed up: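 Luminescence ratio of IκBα-fused green versus native red beetle luciferase in OCI-Ly3 cells, 4 h post-doxycycline with compound; red signal alone, scaled from basal (0%) to zero light (-100%), flagged nonspecific or cytotoxic effects.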
Setting [1] is: measured here: control luc red channel unless noted.
Setting [2] is: measured here: IkB-luc green channel.
Setting [3] is: measured here: control luc red channel.

As for `CN1CCN(c2ccc(NC(=O)c3cccc(OCc4ccccc4)c3)cc2)CC1`, the AC50 under setting [1] is 7.94 µM [falling, partial curve]. Still for that read-out and setting: under `c1ccc2[nH]c(-c3nc4ccccc4[nH]3)nc2c1` stands 1.26 µM [falling, full curve]; under `Cc1ccc(N=c2oc3cc(O)ccc3cc2C(N)=O)cc1`, 0.000398 µM [falling, full curve]. For `CCCNC(=O)c1ccc2c(c1)N=C(CCC)c1ccccc1S2`, the AC50 is 3.98 µM [rising, partial curve] under setting [2] and 1.26 µM [rising, full curve] under setting [3].

Regarding `Cc1ccc(Cl)cc1-n1ncc2c(NCCc3ccccc3)ncnc21`, the AC50 under setting [1] was 31.6 µM [falling, partial curve]. Still for that read-out and setting: under `O=C(Cn1nc2c(cc1=O)CCCC2)NCc1ccc(Cl)cc1` stands 39.8 µM [rising, single point]; under `Cc1cccc(CSc2cn(CC(=O)N3CCOCC3)c3ccccc23)c1`, 12.6 µM [falling, partial curve]; under `COC(=O)Oc1c(Br)c(=O)oc2ccccc12`, 25.1 µM [falling, single point]. Same read-out and setting: for `Cc1ccc(N2C(=O)CS(=O)(=O)C23C(=O)Nc2ccccc23)cc1C` (stereo not drawn) the value was 31.6 µM [falling, single point].

In the case of `CCOC(=O)N1CCC(NC(=O)c2ccc3c(c2)N(Cc2ccccc2C)C(=O)c2ccccc2S3=O)CC1` (stereo not drawn), under setting [1], the AC50 was 12.6 µM [falling, partial curve]. The same measure, in the same setting: for `Cc1ccc(-n2[nH]c(C)c(/C=N/c3ccccn3)c2=O)cc1` the value was 3.98 µM [falling, full curve, poor fit].

As to `CN(Cc1nc(-c2ccc(Cl)cc2)no1)S(=O)(=O)c1ccccc1`, the AC50 under setting [1] is 31.6 µM [falling, single point].

For `CC(C)c1ccc(C2CC(=O)Nc3cc4c(cc32)OCCO4)cc1` (stereo not drawn), the AC50 under setting [1] is 25.1 µM [falling, single point]. Still for that read-out and setting: for `COc1ccc(N2CCN(C(=O)Nc3cn(CC(C)C)c(=O)c4ccccc34)CC2)cc1` the value was 0.398 µM [falling, full curve, poor fit]. Same read-out and setting: under `COc1ccc(-n2c(SCC(=O)Nc3nccs3)nc3sc4c(c3c2=O)CCN(C)C4)cc1` stands 12.6 µM [falling, partial curve]; under `Cc1c(Cl)cccc1NC(=O)c1cc(-c2ccc3c(c2)OCO3)on1`, 39.8 µM [falling, partial curve]; under `Cc1nn(-c2ccccc2)c(OC(=O)c2ccccc2)c1S(=O)(=O)c1ccccc1`, 25.1 µM [falling, partial curve, poor fit]. Still for that read-out and setting: for `O=C(Nc1ccc2c(c1)OCO2)c1ccc(COc2ccc3c(c2)CCC3)o1` the value was 6.31 µM [falling, partial curve]; for `COc1c(Cl)cc(C(=O)Nc2cc(-c3nc4ccccc4[nH]3)ccc2C)cc1Cl`, 15.8 µM [falling, single point]. As for `Cc1cccc(Cn2c(=O)n(CCCCC(=O)NCc3ccc4c(c3)OCO4)c(=O)c3ccccc32)c1`, the AC50 under setting [1] is 15.8 µM [falling, partial curve]. On the same count and under the same terms, under `COc1cccc(N2CC(O)Cn3c2nc2c3c(=O)n(CCCc3ccccc3)c(=O)n2C)c1` (stereo not drawn) stands 25.1 µM [falling, partial curve]. In the case of `Cc1ccc(NC(=O)/C(C#N)=C/c2ccccc2Cl)cc1C`, the AC50 under setting [2] was 3.98 µM [rising, full curve] and the concentration at half-maximal activity (AC50) under setting [3] is 6.31 µM [rising, single point]. Regarding `COc1ccccc1OCCCCn1c(C2CC(=O)N(c3ccccc3Cl)C2)nc2ccccc21` (stereo not drawn), the AC50 under setting [1] is 15.8 µM [falling, partial curve]. The same measure, in the same setting: for `CN(Cc1ccccc1)Cc1c(O)ccc2c(=O)c(-c3ccccc3)c(C(F)(F)F)oc12` the value was 39.8 µM [falling, single point].

As for `CCN(C(=O)c1sc2cc(OC)ccc2c1Cl)c1ccccc1`, the AC50 under setting [1] was 20 µM [falling, partial curve]. Same read-out and setting: under `Cc1ccc(NC(=O)CN2c3ccccc3S(=O)(=O)c3ccccc32)cc1F` stands 31.6 µM [falling, partial curve]. Still for that read-out and setting: under `Cc1cccc(-c2nnc(NC(=O)c3ccc(Cl)cc3)o2)c1` stands 3.98 µM [rising, full curve] [measured here: IkB-luc green channel]; under `O=C(NCc1ccc(F)cc1)C1CCN(S(=O)(=O)c2ccc3c(c2)CCCN3C(=O)C2CCC2)CC1`, 39.8 µM [falling, single point]. Still for that read-out and setting: under `Cc1ccccc1C(=O)Oc1cc(-c2ccc3c(c2)OCO3)cc(=O)c2c(C)oc(C)c12` stands 10 µM [falling, partial curve]; under `O=C(COc1ccccc1Cl)N(Cc1ccco1)Cc1ccco1`, 25.1 µM [falling, single point]; under `c1cc2c3c(c1)c1c(n3CCNC2)CCCC1`, 39.8 µM [falling, partial curve]. Consider `Cc1ccc(S(=O)(=O)c2cnc(SCC(=O)Nc3ccccc3C(F)(F)F)[nH]c2=O)cc1C`, for which the AC50 under setting [1] was 12.6 µM [falling, partial curve]. On the same count and under the same terms, under `Cc1ccc(Cl)cc1NC(=O)c1cc2c(=O)n3cccc(C)c3nc2n1C` stands 12.6 µM [falling, partial curve, poor fit]. On the same count and under the same terms, under `Cc1cc(C)cc(NC(=O)C2CCCN(c3cnccn3)C2)c1` (stereo not drawn) stands 20 µM [falling, single point]; under `Cc1ccc(CNc2nc3ccccc3n3nnnc23)cc1`, 0.251 µM [falling, full curve]. On the same count and under the same terms, under `COc1ccccc1N1CCN(S(=O)(=O)c2c(C)sc3ncn(CC(=O)Nc4ccc(C(C)C)cc4)c(=O)c23)CC1` stands 3.16 µM [falling, full curve]; under `Cc1ccc(N2CCN(C(=O)c3ccc(Nc4nc5ccccc5n5nnnc45)cc3)CC2)c(C)c1`, 3.98 µM [falling, full curve]; under `COC(=O)c1c(NC(=O)CCc2ccc(C)o2)sc(C)c1C`, 15.8 µM [falling, partial curve].

For the molecule `Cc1ccc2ncc(S(=O)(=O)c3ccccc3)c(N3CCCCC3C)c2c1` (stereo not drawn), under setting [1], the AC50 is 25.1 µM [falling, single point]. Still for that read-out and setting: under `CCS(=O)(=O)N1CCN(Cc2ccncc2)CC1` stands 316 nM [rising, full curve] [measured here: IkB-luc green channel]. On the same count and under the same terms, for `COc1ccc(C2=NC3(CCCCCC3)N(CC(=O)Nc3ccc(C)c(C)c3)C2=O)cc1` the value was 10 µM [falling, partial curve]; for `COc1ccc(CNC(=O)CN(c2cc(C(F)(F)F)ccc2Cl)S(C)(=O)=O)cc1`, 12.6 µM [falling, partial curve]. Turning to `CCn1c(C)c(C)c2cc(C(=O)NCc3ccc(N(C)C)cc3)ccc21`, under setting [1], the AC50 is 126 nM [rising, full curve, poor fit] [measured here: IkB-luc green channel].

Consider `Cc1ccc(C(=O)c2oc3ccccc3c2NC(=O)c2cc(-c3ccc(Cl)cc3)on2)cc1`, for which the AC50 under setting [1] was 5.01 µM [falling, partial curve]. On the same count and under the same terms, for `CCOC(=O)C1CCCN(C(=O)c2sc3nc(-c4ccc(F)cc4)cn3c2C)C1` (stereo not drawn) the value was 20 µM [falling, partial curve]. Still for that read-out and setting: under `Cc1ccccc1Nc1sc(C(=O)c2ccc(F)cc2)c(N)c1C(=O)NCCc1ccccc1` stands 12.6 µM [falling, single point]; under `Cc1cccc(N2CCN(C(=O)C34CC5CC(CC(C5)C3)C4)CC2)c1C`, 39.8 µM [falling, single point]. Same read-out and setting: for `Cc1nc(-c2ccc(S(=O)(=O)N3CCN(c4cccc(Cl)c4)CC3)cc2)co1` the value was 39.8 µM [falling, partial curve, poor fit]; for `CC(=O)c1cccc(NC(=O)c2sc(-n3nc(C)c(CCC(C)C)c3C)nc2C)c1`, 6.31 µM [falling, partial curve]; for `COc1ccc(NS(=O)(=O)c2ccc3c(c2)Cc2ccccc2-3)cn1`, 10 µM [falling, partial curve]. Turning to `CC(=O)Nc1ccc(S(=O)(=O)NCC2CCC(C(=O)NCc3ccccc3Cl)CC2)cc1` (stereo not drawn), the AC50 under setting [1] is 6.31 µM [falling, partial curve, poor fit]. Same read-out and setting: for `CSc1ccc(CNC(=O)Cc2csc3ccccc23)cc1` the value was 12.6 µM [falling, partial curve]. Still for that read-out and setting: under `CC(=O)NCCNc1nc2c(-c3cccc(C)c3)nnn2c2ccc(Cl)cc12` stands 0.251 µM [falling, full curve].

Consider `C1=CC2c3ccccc3NC(c3ccncc3)C2C1` (stereo not drawn), for which the AC50 under setting [1] was 39.8 µM [rising, single point] [measured here: IkB-luc green channel]. Still for that read-out and setting: for `CCCCNc1ncnc2c1cnn2-c1ccccc1` the value was 12.6 µM [falling, partial curve]. On the same count and under the same terms, for `COc1ccc(-n2nnnc2C2CCN(S(=O)(=O)c3ccc(F)cc3Cl)CC2)cc1` the value was 12.6 µM [falling, partial curve]. On the same count and under the same terms, for `COc1ccc2c(CNC3CCCC3)c(C(=O)O)n(Cc3ccccc3C)c2c1` the value was 15.8 µM [falling, partial curve].

`CCc1nn2c(=O)cc(COC(=O)c3cccc(NC(=O)c4ccccc4C)c3)nc2s1`: the AC50 under setting [1] is 7.94 µM [falling, partial curve]. Same read-out and setting: for `Cc1cc(C)c2c(=O)cc(C(=O)Nc3sc4c(c3C#N)CCCC4)oc2c1` the value was 7.94 µM [falling, full curve]; for `Cc1ccccc1NC(=O)CN1C(=O)C2(SCC(=O)N2c2ccc(F)cc2)c2ccccc21` (stereo not drawn), 39.8 µM [falling, single point]. On the same count and under the same terms, for `O=C(Nc1cc(C(F)(F)F)ccc1Cl)c1noc2c1CCCCC2` the value was 7.94 µM [falling, full curve].

The term AC50 denotes the concentration at which the activity in the assay is half-maximal.
